According to the supplement of paper PMC4604168 (melanoma cell lines):
This is one part of the list. Single values are uncertain, as repeats are few or missing.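 The apoptosis fraction was the count of cleaved-PARP antibody-stained nuclei relative to all DNA-stained nuclei, imaged in 1,536-well plates. Screening doses were set so most cells survived, and baseline and induced cleaved-PARP levels vary greatly across cell lines.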

Experiments:
Experiment in all cases: cleaved PARP positive nuclei fraction relative to DMSO control; melanoma cells; higher = more apoptosis
Details in all cases: library dose: low library concentration; 72 h
[1] = tested on: MeWo
[2] = tested on: RPMI7951
[3] = tested on: RVH-421
[4] = tested on: SkMel28
[5] = tested on: SkMel30
[6] = tested on: SkMel5
[7] = tested on: UACC257
[8] = tested on: UACC62
[9] = tested on: WM115
[10] = tested on: WM1716
[11] = tested on: WM1745
[12] = tested on: WM3526
[13] = tested on: WM3619
[14] = tested on: WM451Lu

Compound | cleaved PARP positive nuclei fraction [1] | cleaved PARP positive nuclei fraction [2] | cleaved PARP positive nuclei fraction [3] | cleaved PARP positive nuclei fraction [4] | cleaved PARP positive nuclei fraction [5] | cleaved PARP positive nuclei fraction [6] | cleaved PARP positive nuclei fraction [7] | cleaved PARP positive nuclei fraction [8] | cleaved PARP positive nuclei fraction [9] | cleaved PARP positive nuclei fraction [10] | cleaved PARP positive nuclei fraction [11] | cleaved PARP positive nuclei fraction [12] | cleaved PARP positive nuclei fraction [13] | cleaved PARP positive nuclei fraction [14]
Cc1nc(Nc2ncc(C(=O)Nc3c(C)cccc3Cl)s2)cc(N2CCN(CCO)CC2)n1 [dasatanib] + Cn1cc(/C=C2\C(=O)Nc3cccnc32)c2ccccc21 [GW441756] (first compound 0.004 µM, partner dose 0.4 µM) | 112% | 189% | 125% | 132% | 27.2% | 34.1% | 112% | 70.3% | 123% | 116% | 149% | 281% | 85.3% | 43.5%
C=CCn1c(=O)c2cnc(Nc3ccc(N4CCN(C)CC4)cc3)nc2n1-c1cccc(C(C)(C)O)n1 + Cc1cc([N+](=O)[O-])ccc1NS(=O)(=O)c1cc(Cl)ccc1Cl [FH535] (first compound 0.02 µM, partner dose 1 µM) | 164% | 153% | 127% | 79.8% | 404% | 73% | 219% | 373% | 243% | 151% | 129% | 61.5% | 112% | 316%
Cc1ccc(NC(=O)c2cccc(N(C)C)c2)cc1NC(=O)c1ccc(O)cc1 + Oc1cc(-c2nc(-c3ccccc3)[nH]c2-c2ccncc2)ccc1Cl [L779450] (first compound 2 µM, partner dose 0.2 µM) | 238% | 84.1% | 143% | 162% | 25.7% | 18% | 81.4% | 114% | 77.8% | 110% | 112% | 92.8% | 88.9% | 237%
C[C@]1(c2nc3c(C(N)=O)cccc3[nH]2)CCCN1 [Veliparib] + COc1cc2c(Oc3ccc4[nH]c(C)cc4c3F)ncnc2cc1OCCCN1CCCC1 [cediranib] (first compound 1.4 µM, partner dose 0.4 µM) | 53% | 97.9% | 33.8% | 50.4% | 140% | 41.8% | 27.8% | 127% | 111% | 35.3% | 99.3% | 58.2% | 88.3% | 139%
Nc1cccc2c1CN(C1CCC(=O)NC1=O)C2=O (stereo unspecified) [lenalidomide] + COc1cc2c(Oc3ccc4[nH]c(C)cc4c3F)ncnc2cc1OCCCN1CCCC1 [cediranib] (first compound 1 µM, partner dose 0.4 µM) | 97.9% | 81.2% | 26.6% | 66.9% | 56% | 32.8% | 49.3% | 116% | 48.2% | 117% | 98.3% | 66.6% | 88.9% | 58.9%
Cc1nc(Nc2ncc(C(=O)Nc3c(C)cccc3Cl)s2)cc(N2CCN(CCO)CC2)n1 [dasatanib] + C[C@]1(c2nc3c(C(N)=O)cccc3[nH]2)CCCN1 [Veliparib] (first compound 0.004 µM, partner dose 1.4 µM) | 106% | 97.5% | 207% | 60.5% | 99.7% | – | – | 139% | 91% | 291% | 156% | 74.8% | 102% | 132%
Nc1cccc2c1CN(C1CCC(=O)NC1=O)C2=O (stereo unspecified) [lenalidomide] + COc1cc(N2CCC(N3CCN(C)CC3)CC2)ccc1Nc1ncc(Cl)c(Nc2ccccc2S(=O)(=O)C(C)C)n1 [NVP-TAE684] (first compound 1 µM, partner dose 0.08 µM) | 118% | 95.5% | 40.1% | 124% | 71.1% | 124% | 131% | 105% | 81.1% | 63.5% | 139% | 84.2% | 63.3% | 120%
CC(=O)c1c(C)c2cnc(Nc3ccc(N4CCNCC4)cn3)nc2n(C2CCCC2)c1=O [palbociclib] + COc1cc(Nc2ncc(F)c(Nc3ccc4c(n3)NC(=O)C(C)(C)O4)n2)cc(OC)c1OC [Tamatinib] (first compound 0.04 µM, partner dose 0.4 µM) | 154% | 111% | 113% | 43.3% | 86.3% | 111% | 214% | 156% | 236% | 103% | 175% | 58.5% | 123% | 133%
CO[C@@H]1[C@H](N(C)C(=O)c2ccccc2)C[C@H]2O[C@]1(C)n1c3ccccc3c3c4c(c5c6ccccc6n2c5c31)C(=O)NC4 [Midostaurin] + CN(NC(=O)CC(=O)NN(C)C(=S)c1ccccc1)C(=S)c1ccccc1 [STA4783] (first compound 0.08 µM, partner dose 0.006 µM) | 261% | 112% | 108% | 58.9% | 61.3% | 35.3% | 164% | 65% | 155% | 148% | 174% | 159% | 109% | 57.7%
Cn1nnc2c(C(N)=O)ncn2c1=O [temozolomide] + Cc1cc([N+](=O)[O-])ccc1NS(=O)(=O)c1cc(Cl)ccc1Cl [FH535] (first compound 2 µM, partner dose 1 µM) | 162% | 89.6% | 77.2% | 65.2% | 52.5% | 66.9% | 119% | 87.9% | 79.7% | 92.7% | 112% | 184% | 74.9% | 302%
CC(C)(C)c1cnc(CSc2cnc(NC(=O)C3CCNCC3)s2)o1 + O=S(=O)(c1ccccc1)N(CC(F)(F)F)c1ccc(C(O)(C(F)(F)F)C(F)(F)F)cc1 [T0901317] (first compound 0.01 µM, partner dose 1.4 µM) | 59.3% | 104% | 64.2% | 64.7% | 38.8% | 48.2% | 73.8% | 119% | 38.2% | 90.7% | 102% | 316% | 83.7% | 214%
OCCn1cc(-c2cnc3nnn(Cc4ccc5ncccc5c4)c3n2)cn1 + CCN(CC)CCCCNc1ncc2cc(-c3cc(OC)cc(OC)c3)c(NC(=O)NC(C)(C)C)nc2n1 [PD173074] (first compound 1 µM, partner dose 0.1 µM) | 602% | 76.7% | 88.8% | 44.4% | 25.8% | 58.8% | 75.4% | 34% | 63.4% | 98.1% | 114% | 133% | 71.2% | 110%
